In PubChem BioAssay AID493014 (National Center for Advancing Translational Sciences (NCATS), 2011):
Among all 340,000 compounds or so, about 170 (0.05%) were called active. The inconclusive results got no clear call from the source; some entries with a clear call stand among them for comparison. Calls follow the shape of the dose curve; as a rule, active = well fitted inhibition curve with a large enough effect in the signal ratio, with a control signal flat (not every such curve was filed as active); inconclusive = small, poorly fitted or top-dose-only effect, or effect the other way, or a change in a side signal; inactive = flat fitted curve, though single readings scatter; the % refers to the signal ratio. A potency beside an inconclusive call is a rough fit, not a confirmed value.

Assay: qHTS Assay to Find Inhibitors of Chronic Active B-Cell Receptor Signaling;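 as to activity change, negative = inhibition: plate controls were basal doxycycline-induced cells for no effect and cells given 10 µM MG132 for full effect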
Conditions: ABC-DLBCL IkBa-CBG/CBR reporter, luminescence ratio (green luciferase fused to IkBa over red control in TMD8 lymphoma cells), 4 h; activity change, negative = inhibition: at 46.1 µM (top of the series)
How it was run: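 Doxycycline induced both beetle luciferases in TMD8 lymphoma cells; IKK-driven degradation limits the IkappaBalpha-fused green signal, while red luminescence normalises for cell number and nonspecific effects. Compounds tested up to 46 uM, 4 hrs.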
Potency is read from the fitted curve at half-maximal effect.

SMILES	activity change, negative = inhibition	Potency
CCOC(=O)c1cccc(-c2c(-c3ccccc3)ncc3cc(OC)c(OC)cc23)c1	inconclusive: -5.56%	
CNC(=S)N(CCc1c(C)[nH]c2ccc(F)cc12)Cc1cccnc1	inactive	
Cc1ccnc(SCC(=O)Nc2c(C)n(C)n(-c3ccccc3)c2=O)n1	inconclusive: 10.2%	
CCN1C/C(=C/c2ccc(N3CCOCC3)cc2)C(=O)/C(=C/c2ccc(N3CCOCC3)cc2)C1		inconclusive: 10.3 µM [cytotoxic, partial curve]
Fc1ccc(CNc2ncnc3c2c(-c2ccccc2)cn3-c2ccccc2)cc1	inactive	
O=C(O)c1[nH]c2ccc(Cl)cc2c1CCN1C(=O)c2ccccc2C1=O	inconclusive: 15.3%	
CCCC(=O)Nc1nc2c(OC)ccc(OC)c2s1		inconclusive: 4.61 µM [rising, full curve, poor fit]
O=C(CSc1nnc(NC(=O)c2c(F)cccc2F)s1)Nc1ccc(F)cc1	inconclusive: 22.9%	
COC(=O)c1ccccc1NC(=O)c1ccc(-c2cccc(Cl)c2)o1		inconclusive: 0.291 µM [rising, full curve, poor fit]
C=CCNC(=O)CSc1nnc(-c2ccc(S(=O)(=O)N3CCCC3)cc2)n1C	inconclusive: 9.97%	
Cn1c(=O)n(C)c2cc(S(=O)(=O)Nc3ccccc3C(=O)O)ccc21	inactive	
O=c1cc(O)c2ccccc2[nH]1	inactive	
CC(C)(C)NC(=O)C(c1c[nH]c2ccccc12)N(C(=O)Cn1nnc(-c2ccc(Cl)cc2)n1)c1ccccc1F (configuration not stated)		inconclusive: 23.1 µM [rising, partial curve, poor fit]
Cc1csc(=O)n1CC(=O)Nc1ccc(Cl)c(Cl)c1	inactive	
CCn1c(SCc2nc3ccccc3c(=O)[nH]2)nnc1C(C)NC(=O)c1ccccc1 (configuration not stated)	inconclusive: 0.126%	
CCOC(=O)c1cc(-c2ccccc2)n(CC(=O)NCc2ccccc2OC)c1C	inactive	
CCOC(=O)c1c(NC(=O)CNC2CCCCC2)sc(C)c1C	inconclusive: -10.8%	
C#CCNC(=O)C1=C[C@H](c2ccc(C(F)(F)F)cc2)C[C@H](OCc2ccc(CO)cc2)O1	inconclusive: 5.41%	
C/C(=N/NC(=O)c1ccncc1)c1c[nH]c2ccccc12		inconclusive: 35.5 µM [falling, single point]
N#Cc1c(N)nc2c3c(sc(=N)c2c1N)NC(=O)CC3c1ccccc1 (configuration not stated)		inconclusive: 18.4 µM [falling, partial curve, poor fit]
Clc1ccc(C2CSc3c4ncnc-4ncn32)cc1 (configuration not stated)	inconclusive: 0.583%	
CC1=CC(C)(C)n2c(O)c(N=N)c3cc(C)cc1c32	inconclusive: -11.7%	

2 neighbouring entries from above, quoted:
SMILES	activity change, negative = inhibition	Potency
CCOC(=O)c1cccc(-c2c(-c3ccccc3)ncc3cc(OC)c(OC)cc23)c1	inconclusive: -5.56%	
CNC(=S)N(CCc1c(C)[nH]c2ccc(F)cc12)Cc1cccnc1	inactive	
